About 6,200 (1.8%) of roughly 340,000 compounds were called active. The inconclusive results got no clear call from the source; some entries with a clear call stand among them for comparison. Calls follow the shape of the dose curve; as a rule, active = well fitted activation curve with a large enough effect; inconclusive = small, poorly fitted or top-dose-only effect; inactive = no such curve, though single readings can be large or run the other way. Where the call is inconclusive, the potency comes from a doubtful curve fit.
Test: A quantitative high throughput screen for small molecules that induce DNA re-replication in SW480 colon adenocarcinoma cells. Also: nearly all actives have a fitted effect of over 55% in size. As to re-replication activation: % of control where 0% means no effect.
Conditions: Hoechst DNA content imaging, 48 h; re-replication activation: at 46.1 µM (top of the series) unless noted
Procedure, shortened: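 Treated cells incubate 48 hr (37 C, 5% CO2), are stained 40 min with Hoechst, and nuclear fluorescence is enumerated; a rise in nuclei with high DNA signal marks re-replication.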
Potency is read from the fitted curve at half-maximal effect.

Row | Compound | Potency | re-replication activation
1 | CC(=O)N1c2ccc(S(=O)(=O)NCC3CCC(C(=O)NCc4ccc(C)cc4)CC3)cc2CC1C (stereo not given) | inconclusive: 0.0073 µM [activator, full curve, poor fit] | –
2 | COc1cc(C(C)=O)ccc1OCC(O)Cn1nc(C)c(Br)c1C (stereo not given) | – | inactive: -5.09%
3 | Nc1cccc2c1C(=O)N(Cc1cccc(Cl)c1)C2=O | inconclusive: 20.6 µM [activator, single point] | –
4 | Cc1ccccc1C(=O)NNC(=O)CSc1nnc(C)n1-c1ccccc1 | inconclusive: 29.1 µM [activator, partial curve, poor fit] | –
5 | CCN1CCN(c2oc(/C=C/c3ccccc3)nc2C#N)CC1 | inconclusive: 29.1 µM [activator, single point] | –
6 | CCOC(=O)c1ccc(N2C(=O)C3C(/C=C/c4ccccc4)OC4(C(=O)c5ccccc5C4=O)C3C2=O)cc1 (stereo not given) | – | inactive: -5.66%
7 | O=C(c1ccc2oc(Cc3ccc(Cl)cc3)nc2c1)N1CC[C@H](O)C1 | inconclusive: 20.6 µM [activator, single point] | –
8 | CCn1c(Cc2ccccc2)nnc1SCC(=O)Nc1ccccc1N1CCOCC1 | inconclusive: 29.1 µM [activator, single point] | –
9 | CC1CN(C(=O)CCC(=O)NCCCN2CCC(Cc3ccccc3)CC2)c2cc(Cl)ccc2O1 (stereo not given) | inconclusive: 29.1 µM [activator, single point] | –
10 | COc1ccc(CN2CCN(Cc3csc(C(C)=O)c3)CC2CCO)c(C)c1C (stereo not given) | – | inactive: -0.775%
11 | COc1cc(C(=O)NCC(=O)N2CCN(S(=O)(=O)c3cc(C)ccc3C)CC2)cc(OC)c1OC | active: 8.2 µM | –
12 | Cn1cccc1-c1cc(C(=O)N/N=C/c2cc(Br)ccc2O)[nH]n1 | inconclusive: 14.6 µM [activator, partial curve, poor fit] | –
13 | Cc1nnn(-c2nonc2N)c1C(=O)N/N=C/c1ccccc1O | active: 2.59 µM | –
14 | CC1CCCN(S(=O)(=O)c2ccc(C(=O)Nc3nnc(-c4ccco4)o3)cc2)C1 (stereo not given) | inconclusive: 16.4 µM [activator, single point] | –
15 | COc1ccc(C(=O)CCC(=O)N2CCN(c3ccc(C)cc3)C(C)C2)cc1 (stereo not given) | – | inactive: -14.3%
16 | O=C1/C(=C/c2ccc(Cl)cc2)SC(=S)N1CCC(=O)N1CCCCC1CCO (stereo not given) | inconclusive: 16.4 µM [activator, partial curve] | –
17 | Cc1cc(NS(=O)(=O)c2c(C)[nH]c(=O)[nH]c2=O)ccc1Br | – | inactive: -1.48%
18 | O=C(CN1C(=O)C2C3C=CC(C3)C2C1=O)NCCc1ccccc1 (stereo not given) | inconclusive: 29.1 µM [activator, single point] | –
19 | CCOc1cc(S(=O)(=O)NCC2CCCO2)ccc1F (stereo not given) | inconclusive: 14.6 µM [activator, single point] | –
20 | COc1c(OC(C)=O)ccc(/C=C/c2ccc3cccc(OC)c3n2)c1[N+](=O)[O-] | – | inactive: -0.506%
21 | N#Cc1ccc(-c2ccc(OCC(O)Cn3nnc4ccccc43)cc2)cc1 (stereo not given) | – | inactive: 1.5%
22 | COC(=O)C1=C(NC(=O)CCCCl)CCS1 | – | inactive: -5.43%
23 | COC(=O)C1=C(C)NC2=C(C(=O)CCC2)C1c1cn(Cc2ccc(Cl)cc2Cl)nc1-c1ccccc1 (stereo not given) | inconclusive: 18.4 µM [activator, single point] | –

Row | Compound | Potency | re-replication activation
24 | CC(=O)Nc1sc(C)c(C)c1C(=O)OCC(=O)Nc1cc(S(=O)(=O)N2CCCCC2)ccc1Cl | inconclusive: 29.1 µM [activator, partial curve, poor fit] | –
25 | Cc1onc(-c2ccccc2)c1C(=O)Nc1nc(-c2ccc(F)c(F)c2)cs1 | inconclusive: 0.092 µM [activator, full curve, poor fit] | –
26 | COc1ccc(-c2cc(C(F)F)n3ncc(C(=O)N4CCc5ccccc54)c3n2)cc1 | active: 7.31 µM | –
27 | CC(=O)c1cccc(NC(=O)NCCc2c[nH]c3ccccc23)c1 | inconclusive: 0.0103 µM [activator, full curve, poor fit] | –
28 | COc1ccccc1C(CCNCc1ccccc1)c1ccc(OC(C)C)cc1 (stereo not given) | inconclusive: 23.1 µM [activator, single point] | –
29 | Cc1cc([N+](=O)[O-])nn1CC(=O)Nc1ccc(Cc2ccncc2)cc1 | inconclusive: 11.6 µM [activator, partial curve] | –
30 | CC1(c2ccc(Cl)cc2)NC(=O)N(CC(=O)NCCC2=CCCCC2)C1=O (stereo not given) | active: 0.164 µM | –
31 | CCc1cccc2c(C(=O)COC(=O)c3c(C)noc3C)c[nH]c12 | inconclusive: 18.4 µM [activator, single point] | –
32 | CCc1ccc2c(Cl)c(C(=O)N/N=C/c3c[nH]c4ccccc34)sc2c1 | inconclusive: 29.1 µM [activator, single point] | –
33 | COc1cc(CCC(=O)Nc2nnc(C)s2)cc(OC)c1OC | active: 6.51 µM | –
34 | Nc1c(S(=O)(=O)c2cccs2)c2nc3ccccc3nc2n1Cc1ccccc1 | – | inactive: 1.25%
35 | COC(=O)c1cc(CN2CCN(c3ccccc3C)CC2)ccc1O | inconclusive: 17.8 µM [activator, partial curve, poor fit] | –
36 | Cn1c(=O)[nH]c2cc(Cl)cnc21 | inconclusive: 29.1 µM [activator, partial curve, poor fit] | –
37 | COc1cc(C)c(CN2CCN(C(C)C(=O)NC(C)c3ccccc3)CC2)cc1OC (stereo not given) | – | inactive: -4.89%
38 | Cc1cc2sc3ccc(C#CC4(O)CCCCC4)cc3c(=O)c2cc1C | – | inactive: -4.22%
39 | c1ccc(Oc2c3ccccc3nc3ccccc23)cc1 | inconclusive: 29.1 µM [activator, single point] | –
40 | COCCN(C(=O)CCc1ccccc1OC)c1nnc(-c2cccnc2)s1 | – | inactive: -27.8%
41 | CC(C)(C)C1CCC(OCC(O)CN2CCN(Cc3ccccc3)CC2)CC1 (stereo not given) | active: 14.6 µM | –
42 | C/[N+]([O-])=C\c1ccc([N+](=O)[O-])o1 | active: 14.6 µM | –
43 | CC(C)(C)OC(=O)N(CCc1ccccc1)Cc1cccc(OCc2cccc(NC(=O)C3CC3)c2)c1 | inconclusive: 29.1 µM [activator, single point] | –
44 | COc1cccc(CN2CCC(Oc3ccc(C(=O)N4CCCCC4)cc3)CC2)c1O | – | inactive: 2.52%
45 | CCOC(=O)c1ccc(NC(=O)c2sc3nc4n(c(=O)c3c2C)CCC4)cc1 | inconclusive: 1.16 µM [activator, single point] | –

Structural class, those above with a furan ring, fused or not (two)
Row | Compound | Potency | re-replication activation
14 | CC1CCCN(S(=O)(=O)c2ccc(C(=O)Nc3nnc(-c4ccco4)o3)cc2)C1 (stereo not given) | inconclusive: 16.4 µM [activator, single point] | –
42 | C/[N+]([O-])=C\c1ccc([N+](=O)[O-])o1 | active: 14.6 µM | –

Reference: PubChem BioAssay AID624297 (National Center for Advancing Translational Sciences (NCATS), 2012)
